No constants are given. Whether binding was seen depends on the method and setting. In cells and extracts the contact can be indirect. Some entries that bind do so weakly or less than the wild type.

The chains behind the UniProt entries cited, without tags or fusion partners.
UniProt P17844: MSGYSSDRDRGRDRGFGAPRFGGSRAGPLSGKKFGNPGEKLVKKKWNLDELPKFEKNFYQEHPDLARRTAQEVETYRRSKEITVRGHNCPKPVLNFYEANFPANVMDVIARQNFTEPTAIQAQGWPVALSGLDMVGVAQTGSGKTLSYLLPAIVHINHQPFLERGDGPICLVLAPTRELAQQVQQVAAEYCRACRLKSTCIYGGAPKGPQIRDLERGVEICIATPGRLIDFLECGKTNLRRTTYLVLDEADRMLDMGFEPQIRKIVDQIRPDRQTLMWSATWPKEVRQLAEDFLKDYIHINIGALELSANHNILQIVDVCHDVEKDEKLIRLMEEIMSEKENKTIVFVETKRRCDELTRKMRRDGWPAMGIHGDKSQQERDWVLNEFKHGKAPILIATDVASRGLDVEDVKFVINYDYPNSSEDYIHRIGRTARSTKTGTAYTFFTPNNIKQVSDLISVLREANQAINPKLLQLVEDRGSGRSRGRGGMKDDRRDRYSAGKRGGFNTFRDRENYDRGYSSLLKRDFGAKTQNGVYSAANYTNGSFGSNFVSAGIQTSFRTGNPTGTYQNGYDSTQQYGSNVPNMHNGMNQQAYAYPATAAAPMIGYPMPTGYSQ
UniProt Q07666: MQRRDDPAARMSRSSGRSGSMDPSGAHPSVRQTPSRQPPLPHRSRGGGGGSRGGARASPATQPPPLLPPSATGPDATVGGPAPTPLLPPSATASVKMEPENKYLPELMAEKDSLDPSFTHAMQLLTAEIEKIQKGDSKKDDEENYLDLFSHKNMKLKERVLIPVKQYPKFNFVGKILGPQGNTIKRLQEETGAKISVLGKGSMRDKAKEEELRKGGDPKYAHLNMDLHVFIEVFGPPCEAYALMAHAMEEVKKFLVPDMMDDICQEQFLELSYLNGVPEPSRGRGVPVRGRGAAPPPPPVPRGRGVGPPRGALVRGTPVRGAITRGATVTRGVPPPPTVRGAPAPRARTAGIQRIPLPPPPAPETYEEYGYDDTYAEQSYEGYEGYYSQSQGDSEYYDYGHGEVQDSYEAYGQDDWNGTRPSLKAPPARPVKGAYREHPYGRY

In publication PMC12311210 one finds binding data, which are given here for three molecules.

The target in assay [1] is DDX5 (DEAD-box helicase 5) (human (endogenous in HeLa)) (UniProt P17844). Kind of assay: cross-linking; HeLa cells (1 x 10^6) incubated with 10 µg/mL F1, F3 or P3 in PBS at 37 °C for 45 min, homogenised, protein 2.5 mg/mL; cross-linked with 10-fold molar excess of dimethyl suberimidate (DMS) in 0.2 M triethanolamine pH 8.0, room temperature, 45 min; tryptic digest, LC-MS/MS, pLink2, 1% FDR on peptide level; only the binder purified.

The target of assay [2] is KHDRBS1 (KH domain-containing RNA-binding protein 1) (human (endogenous in HeLa)) (UniProt Q07666). Described as above.

Take GLFGVLGSIAKHVLPHVVPVIAEKL (C-terminal amide (-NH2)) [Caerin 1.9]: the binding entry in assay [1] is on record as “binds”.
For the molecule GTELPSPPSVWFEAEFK [control peptide P3], the binding entry in assay [1] and in assay [2] was “no binding (tested: 10 µg/mL)” throughout.
For the molecule GLLSVLGSVAKHVLPHVVPVIAEHL (C-terminal amide (-NH2)) [Caerin 1.1], the binding entry in assay [2] is recorded as “binds”.
